# Assay results published in the supplement of paper PMC8728848.
# The list shows a part of the results.
# Tests used:
# Test in all cases: glycan array binding signal (z-score within array); higher = stronger binding
# Details in all cases: glycan notation: IUPAC condensed, linker removed
# [1] = biological target: Fuc(a1-2)Gal
# In short: (§1)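 Glycan array binding is given as a within-array Z-score, which can be read as non-binding when negative. The arrays, 3228 of them, came from the Consortium for Functional Glycomics database and were retained only where the protein sequence was available. Z-scores were averaged across arrays of the same protein sequence at different concentrations or buffers and across linkers.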
# [2] = biological target: Fuc(a1-2)Gal(b1-3)GalNAc
# In short: as §1
# [3] = biological target: Fuc(a1-2)Gal(b1-3)GalNAc(a1-3)[Fuc(a1-2)]Gal(b1-4)Glc
# In short: as §1
# [4] = biological target: Fuc(a1-2)Gal(b1-3)GalNAc(a1-3)[Fuc(a1-2)]Gal(b1-4)GlcNAc
# In short: as §1
# [5] = biological target: Fuc(a1-2)Gal(b1-3)GalNAc(b1-3)Gal
# In short: as §1
# [6] = biological target: Fuc(a1-2)Gal(b1-3)GalNAc(b1-3)Gal(a1-4)Gal(b1-4)Glc
# In short: as §1
# [7] = biological target: Fuc(a1-2)Gal(b1-3)GalNAc(b1-4)[Neu5Ac(a2-3)]Gal(b1-4)Glc
# In short: as §1
# [8] = biological target: Fuc(a1-2)Gal(b1-3)GlcNAc
# In short: as §1
# [9] = biological target: Fuc(a1-2)Gal(b1-3)GlcNAc(b1-2)Man(a1-3)[Fuc(a1-2)Gal(b1-3)GlcNAc(b1-2)Man(a1-6)]Man(b1-4)GlcNAc(b1-4)GlcNAc
# In short: as §1
# [10] = biological target: Fuc(a1-2)Gal(b1-3)GlcNAc(b1-2)Man(a1-3)[Fuc(a1-2)Gal(b1-3)GlcNAc(b1-2)Man(a1-6)]Man(b1-4)GlcNAc(b1-4)[Fuc(a1-6)]GlcNAc
# In short: as §1
# [11] = biological target: Fuc(a1-2)Gal(b1-3)GlcNAc(b1-3)Gal(b1-4)Glc
# In short: as §1
# [12] = biological target: Fuc(a1-2)Gal(b1-3)GlcNAc(b1-3)GalNAc
# In short: as §1
# [13] = biological target: Fuc(a1-2)Gal(b1-3)GlcNAc(b1-3)[Fuc(a1-2)Gal(b1-3)GlcNAc(b1-6)]GalNAc
# In short: as §1
# [14] = biological target: Fuc(a1-2)Gal(b1-3)GlcNAc(b1-3)[Gal(b1-4)GlcNAc(b1-6)]Gal(b1-4)Glc
# In short: as §1
# [15] = biological target: Fuc(a1-2)Gal(b1-3)GlcNAc(b1-3)[Neu5Ac(a2-6)Gal(b1-4)GlcNAc(b1-6)]Gal(b1-4)Glc
# In short: as §1
# [16] = biological target: Fuc(a1-2)Gal(b1-3)GlcNAc6S
# In short: as §1
# [17] = biological target: Fuc(a1-2)Gal(b1-3)[Fuc(a1-4)]GlcNAc
# In short: as §1
# [18] = biological target: Fuc(a1-2)Gal(b1-3)[Fuc(a1-4)]GlcNAc(b1-2)Man(a1-3)[Fuc(a1-2)Gal(b1-3)[Fuc(a1-4)]GlcNAc(b1-2)Man(a1-3)]Man(b1-4)GlcNAc(b1-4)GlcNAc
# In short: as §1
# [19] = biological target: Fuc(a1-2)Gal(b1-3)[Fuc(a1-4)]GlcNAc(b1-2)Man(a1-3)[Fuc(a1-2)Gal(b1-3)[Fuc(a1-4)]GlcNAc(b1-2)Man(a1-6)]Man(b1-4)GlcNAc(b1-4)[Fuc(a1-6)]GlcNAc(b1-4)[Fuc(a1-6)]GlcNAc
# In short: as §1
# [20] = biological target: Fuc(a1-2)Gal(b1-3)[Fuc(a1-4)]GlcNAc(b1-3)[Fuc(a1-3)[Gal(b1-4)]GlcNAc(b1-6)]Gal(b1-4)Glc
# In short: as §1
# [21] = biological target: Fuc(a1-2)Gal(b1-3)[Fuc(a1-4)]GlcNAc(b1-3)[Gal(b1-4)GlcNAc(b1-6)]Gal(b1-4)Glc
# In short: as §1
# [22] = biological target: Fuc(a1-2)Gal(b1-4)Fuc(a1-3)]GlcNAc(b1-2)Man(a1-3)[Fuc(a1-2)Gal(b1-4)[Fuc(a1-3)]GlcNAc(b1-2)Man(a1-6)]Man(b1-4)GlcNAc(b1-4)GlcNAc
# In short: as §1
binder,measurement,setting,value
Epa19 (Candida glabrata) (protein) MGSSHHHHHHSSGLVPRGSHMASSKDPTRFPIGCSPQVLKTQPGLAVKLYSYGHPVPGCSYITYQYPDFPRSGYKKERKLADITGVNGKIDIDLKPNDPCRVLTGHLPSNYNYPDTLTYTNFTMILYGYFQPKVTGYHTFNLEADDLLFMNLGAGNAFDCCKAESTLDNFGNYQSYSLWGSDYAKANITVFLVSGVYYPIRLFYVNRDNNAVIDFSFTTEFDKEKVHDFTSYFFSASDGEQCPGSV,glycan array binding signal (z-score),[1],-0.231
same,glycan array binding signal (z-score),[2],-0.447
same,glycan array binding signal (z-score),[3],-0.298
same,glycan array binding signal (z-score),[4],-0.156
same,glycan array binding signal (z-score),[5],0.988
same,glycan array binding signal (z-score),[6],0.088
same,glycan array binding signal (z-score),[7],0.201
same,glycan array binding signal (z-score),[8],-0.527
same,glycan array binding signal (z-score),[9],0.072
same,glycan array binding signal (z-score),[10],-0.362
same,glycan array binding signal (z-score),[11],-0.322
same,glycan array binding signal (z-score),[12],-0.344
same,glycan array binding signal (z-score),[13],-0.113
same,glycan array binding signal (z-score),[14],-0.333
same,glycan array binding signal (z-score),[15],-0.149
same,glycan array binding signal (z-score),[16],-0.451
same,glycan array binding signal (z-score),[17],-0.394
same,glycan array binding signal (z-score),[18],0.506
same,glycan array binding signal (z-score),[19],0.216
same,glycan array binding signal (z-score),[20],-0.38
same,glycan array binding signal (z-score),[21],-0.189
same,glycan array binding signal (z-score),[22],2.57

# For reference, part of the list above.
binder,measurement,setting,value
Epa19 (Candida glabrata) (protein) MGSSHHHHHHSSGLVPRGSHMASSKDPTRFPIGCSPQVLKTQPGLAVKLYSYGHPVPGCSYITYQYPDFPRSGYKKERKLADITGVNGKIDIDLKPNDPCRVLTGHLPSNYNYPDTLTYTNFTMILYGYFQPKVTGYHTFNLEADDLLFMNLGAGNAFDCCKAESTLDNFGNYQSYSLWGSDYAKANITVFLVSGVYYPIRLFYVNRDNNAVIDFSFTTEFDKEKVHDFTSYFFSASDGEQCPGSV,glycan array binding signal (z-score),[19],0.216
same,glycan array binding signal (z-score),[20],-0.38
